Experimental data published in PubChem BioAssay AID504467 (National Center for Advancing Translational Sciences (NCATS), 2011).
The campaign covered roughly 330,000 compounds. About 7,700 (2.3%) were called active. The shares of active, inactive and inconclusive entries below differ from those in the screen. Calls follow the shape of the dose curve; as a rule, active = well fitted inhibition curve with a large enough effect; inconclusive = small, poorly fitted or top-dose-only effect, or effect the other way; inactive = flat fitted curve, though single readings scatter. A potency beside an inconclusive call is a rough fit, not a confirmed value.

Test: qHTS screen for small molecules that inhibit ELG1-dependent DNA repair in human embryonic kidney (HEK293T) cells expressing luciferase-tagged ELG1; also: nearly all actives have a fitted effect of over 55% in size
Conditions: HEK293T ELG1-luciferase reporter, luminescence, 16 h, DNA damage induced by 5-fluorouridine; activity change, negative = inhibition: at 46.1 µM (top of the series)
In short: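 DMSO vehicle served as the neutral condition. Each well held 2,000 cells given 5-fluorouridine plus compound; after 16 hr at 37 °C/5% CO2, ONE-Glo was added and luciferase measured 30 min later.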
% is scaled to controls: 0 for no effect and ±100 for the full control effect; potency is read from the fitted curve at half-maximal effect.

SMILES	activity change, negative = inhibition	Potency
COc1ccc(C(=O)NC(CCSC)C(=O)N2CCCCCC2)cc1 (stereo not given)	inactive: -7.29%	
CCc1ccc(-c2csc3ncn(CC)c(=O)c23)cc1	inactive: -3.54%	
Cc1cccc(NC(=O)NC(C)CCc2ccccc2)c1 (stereo not given)		inconclusive: 18.4 µM [activator, single point]
CC(C)n1cc(NC(=O)c2cc(-c3ccccc3)on2)cn1		inconclusive: 29.1 µM [activator, single point]
CC(=O)c1c(C)[nH]c(C(=O)COC(=O)C2(C)CC2(Cl)Cl)c1C (stereo not given)		inconclusive: 25.9 µM [inhibitor, single point]
Cc1ccc(OCC(=O)OC(C)CN2CCCCC2)cc1 (stereo not given)	inactive: -2.88%	
O=C(CCc1ccccc1)Nc1ccc2c(c1)OCCO2		inconclusive: 1.64 µM [activator, full curve]
COC(=O)N/N=C/c1ccc(-c2cccc(Cl)c2)o1		inconclusive: 11.6 µM [activator, partial curve]
CC(=O)NCCNC(=O)C1CCCCN1S(=O)(=O)c1ccccc1 (stereo not given)	inactive: -8.53%	
Cn1c(CNC(=O)CCNC(=O)c2ccccc2F)cc(=O)n(C)c1=O		inconclusive: 5.17 µM [activator, full curve, poor fit]
O=C(CCc1ccccc1)Nc1ccnn1C1CCN(Cc2ncc[nH]2)CC1		inconclusive: 29.1 µM [activator, single point]
COCCNc1c2c(nc3ccccc13)CCC2	inactive: -13.1%	
CN1CCN(C(=O)CNC(=O)C23CC4CC(CC(C4)C2)C3)CC1	inactive: 32.1%	
Cc1noc(C)c1S(=O)(=O)N1CCC(C(=O)N2CCN(Cc3ccc4c(c3)OCO4)CC2)CC1		inconclusive: 29.1 µM [inhibitor, single point]
Cc1cc(NC(=O)/C(C#N)=C/c2ccc(-c3cccc(C(F)(F)F)c3)o2)n(-c2ccccc2)n1		inconclusive: 25.9 µM [inhibitor, partial curve, poor fit]
Cc1cc(OCC(=O)N2CCOCC2)ccc1NC(=O)c1ccccc1C		inconclusive: 18.3 µM [activator, partial curve]
O=C(c1cccs1)N(Cc1ccco1)Cc1cc2ccccc2[nH]c1=O		inconclusive: 29.1 µM [inhibitor, partial curve, poor fit]
COc1ccc2oc(C(=O)N3CCN(S(=O)(=O)c4ccc(F)cc4)CC3)c(C)c2c1		inconclusive: 29.1 µM [inhibitor, single point]
Cc1ccc(C2CC(c3cccs3)=NN2C(=O)c2ccc(Br)o2)cc1 (stereo not given)	inactive: -22.2%	
O=C(O)c1cccc(-n2cccc2/C=C/[N+](=O)[O-])c1		inconclusive: 29.1 µM [activator, single point]
O=C(Nc1nnc(-c2ccc(Br)cc2)o1)c1cccc(N2C(=O)CCC2=O)c1	inactive: 19.7%	
CN(C)S(=O)(=O)c1cccc(NC(=O)c2cnccn2)c1	inactive: 8.36%	
CCOC(=O)c1c(NC(=O)CSc2nnc3c(Cl)cc(Cl)cn23)sc2c1CCC2		inconclusive: 8.2 µM [inhibitor, partial curve, poor fit]
COc1cccc(-c2nc(CS(=O)(=O)CC(=O)NCCc3ccccc3)c(C)o2)c1		active: 4.61 µM

Nothing new here: three of the compounds above.
SMILES	activity change, negative = inhibition	Potency
CC(C)n1cc(NC(=O)c2cc(-c3ccccc3)on2)cn1		inconclusive: 29.1 µM [activator, single point]
CC(=O)c1c(C)[nH]c(C(=O)COC(=O)C2(C)CC2(Cl)Cl)c1C (stereo not given)		inconclusive: 25.9 µM [inhibitor, single point]
Cc1ccc(OCC(=O)OC(C)CN2CCCCC2)cc1 (stereo not given)	inactive: -2.88%	

(cont.)

SMILES	activity change, negative = inhibition	Potency
Cc1ccc(-c2cc(C(=O)Nc3ccc(S(=O)(=O)Nc4onc(C)c4C)cc3)[nH]n2)c(O)c1	inactive: 0%	
CCCC(=O)Nc1ccc(C(=O)Nc2cccc(OC)c2)cc1		inconclusive: 23.1 µM [activator, single point]
CCOc1ccc(-n2c(O)c(/C=N/Nc3nc(C)cc(C)n3)c3ccccc3c2=O)cc1		active: 14.6 µM
NC(=O)Cc1ccc2sc(-c3ccccc3)nc2c1		inconclusive: 6.51 µM [activator, partial curve]
N#Cc1ccc(COc2ccc(CCO)cc2-n2nc3ccccc3n2)cc1		inconclusive: 20.6 µM [inhibitor, single point]
Cc1ccccc1CNC(=O)C1CCC(=O)N(C2CC2)C1 (stereo not given)		inconclusive: 25.9 µM [activator, partial curve, poor fit]
O=C(Nc1cccc(O)c1)c1cnn2cccnc12		inconclusive: 2.91 µM [activator, single point]
O=C(Cn1cnc2ccccc2c1=O)Nc1ccc(S(=O)(=O)N2CCOCC2)cc1	inactive: -0.581%	
CCN(CC)C(=O)CSc1nnc([C@H](Cc2c[nH]c3ccccc23)NC(=O)OC(C)(C)C)o1		inconclusive: 20.6 µM [inhibitor, single point]
CN1C2CCC1CC(OC(c1ccccc1)c1ccccc1)C2 (stereo not given)	inactive: -22.7%	
Cc1ccc(NC(=S)NCC(C)CSc2ccc(Cl)cc2)cc1 (stereo not given)		inconclusive: 29.1 µM [inhibitor, single point]
COc1ccc(Oc2ccc(-c3ccn[nH]3)cc2)cc1		inconclusive: 14.6 µM [activator, partial curve]
Cc1ccc(OC(=O)c2ccc(Cl)c([N+](=O)[O-])c2)cn1		inconclusive: 10.3 µM [activator, partial curve, poor fit]
CCOc1ccc(-c2cc(C(=O)NN)[nH]n2)cc1		inconclusive: 18.4 µM [activator, partial curve]
O=C(O)c1ccc(Nc2nc(-c3ccccc3)nc3ccccc23)cc1	inactive: -10.7%	
Cc1cccc(NC(=O)COC(=O)c2nn(C)c(=O)c3ccccc23)c1C	inactive: 11.5%	
COC1(c2cc(-c3ccccc3)nc(N)n2)CCCCC1		inconclusive: 1.3 µM [inhibitor, partial curve, poor fit]
O=C(NNC(=O)c1cccs1)c1ccc(Br)cc1		inconclusive: 18.3 µM [activator, partial curve]
c1ccc2c(-c3nc4ncccc4o3)cccc2c1		inconclusive: 20.6 µM [activator, single point]
O=C(Nc1cccnc1)OC1CCCCC1		inconclusive: 0.0018 µM [activator, full curve, poor fit]
Cc1nc(C)c(-c2ccc(SCc3ccccc3F)nn2)s1		inconclusive: 14.6 µM [activator, partial curve]
O=C(N=C1N=C2C=CC=CN2Cc2ccccc21)c1ccc(S(=O)(=O)N2CCOCC2)cc1		inconclusive: 13 µM [activator, partial curve]
O=C(CN1CCN(S(=O)(=O)c2cc(Cl)ccc2Cl)CC1)Nc1ccc2c(c1)OCCO2		inconclusive: 18.4 µM [inhibitor, single point]
Cc1cc(C)nc(NC(=S)Nc2ccc(F)cc2F)c1	inactive: -12.4%	

SMILES	activity change, negative = inhibition	Potency
COc1ccccc1OCc1nc(-c2ccc([N+](=O)[O-])cc2)no1		inconclusive: 25.9 µM [activator, single point]
COc1cc2c(cc1OC)C(C)N(C(=O)c1cc3c(s1)-c1c(C)cccc1OC3)CC2 (stereo not given)		inconclusive: 20.6 µM [inhibitor, single point]
CC(Oc1ccc2c3c(c(=O)oc2c1)CCCC3)C(=O)NCC(O)c1ccccc1 (stereo not given)	inactive: -3.41%	
CCCCC1(C)NC(=S)N2N1C(=S)NC2(C)CCCC (stereo not given)	inactive: -2.09%	
O=C(CCSc1ccccc1)N1CCN(C(=O)c2ccco2)CC1		inconclusive: 10.3 µM [activator, partial curve]
CNC(=O)C1CC(=O)N(CCc2ccc(OC)cc2)C(=Nc2ccc(OC)cc2)S1 (stereo not given)		inconclusive: 11.6 µM [inhibitor, partial curve, poor fit]
c1ccc(N/N=C(\Cc2ncc[nH]2)c2ccccc2)cc1	inactive: -13%	
Cn1c(=O)n(C)c2cc(C(=O)c3ccccc3)ccc21		inconclusive: 5.17 µM [activator, single point]
O=C(c1cccc(F)c1)N1CCC(N2CCOCC2)CC1		inconclusive: 25.9 µM [activator, single point]
Cc1ccc(C(=O)Nc2cccc(C(=O)N3CCOCC3)c2)cc1		inconclusive: 9.2 µM [activator, partial curve]
COc1ccc(NC(=O)CSc2nc(C)cs2)c(OC)c1		inconclusive: 20.6 µM [activator, single point]
N#C/C(=C\c1cn(CCOc2ccccc2F)c2ccccc12)C(=O)NCc1cccs1	inactive: 14.2%	
C/C(=N\NC(=O)c1ccc2c(c1)OCO2)c1ccc(O)cc1		inconclusive: 20.6 µM [activator, partial curve]
CSc1nnc(NC(=O)c2ccc(C)c(S(=O)(=O)N3CCOCC3)c2)s1		inconclusive: 20.6 µM [activator, partial curve]
CCOc1ccc(C(C)NC(=S)NCc2ccc(Cl)cc2)cc1 (stereo not given)		inconclusive: 29.1 µM [inhibitor, single point]
Cc1ccc(CNC(=O)[C@H](C)[C@H]2C[C@]2(C)[C@H](NC(=O)OCc2ccccc2)c2ccccc2)o1		inconclusive: 32.6 µM [inhibitor, single point]
CCOC(=O)C1CCN(c2c(N3CCN(Cc4ccccc4)CC3)c(=O)c2=O)CC1	inactive: 8.29%	
CNc1nc2c(N)ncnc2n1[C@H]1O[C@@H](CO)[C@H](O)[C@@H]1O		inconclusive: 29.1 µM [activator, single point]
CCOC(=O)c1cc(-c2ccccc2)nn1CCC#N		inconclusive: 20.6 µM [activator, single point]
COc1c(C)cc(Br)cc1C(=O)Nc1ccc(C)cc1[N+](=O)[O-]		inconclusive: 16.4 µM [activator, partial curve, poor fit]
O=C(N/N=C/c1sc2ccccc2c1O)c1ccccc1		inconclusive: 3.66 µM [inhibitor, partial curve, poor fit]
COC(=O)c1ccc(NC(=O)CCc2nnc3ccc(N4CCC5(CC4)OCCO5)nn23)cc1	inactive: -12.7%	
